PubChem BioAssay AID1224830 – NIAID, 2016
Purpose: 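Genes whose knock-down alters the TNF-alpha reporter response to LPS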 (primary screen). Cells: human THP-1 monocytic leukaemia cells, TNF dual-luciferase reporter clone, PMA-differentiated to macrophage-like cells. Reagent: siRNA pool against human genes, 50 nM. Time to read-out: LPS for 4 h, given about 3 days after siRNA transfection. Challenge: bacterial LPS (TLR4 ligand), 10 ng/ml. Measurement: 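Ratio of firefly to renilla light, scaled to the plate median and expressed as a robust z-score per replicate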. Direction: TNF reporter robust z-score: higher = stronger TNF reporter response to LPS. Hit rule: 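Each well counts as active if its z-score is over 2.8 or under -1.5; controls are left without a call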.
Here is a random part of about 18,000 deposited reagents. About 2,900 of them (16%) count as active. 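Calls are made per well; low scores hint the gene aids the LPS response, high scores that it dampens it.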 Repeated entries: four replicate wells of each siRNA pool.

| target | TNF reporter robust z-score | call |
| --- | --- | --- |
| CLDN7 | 0.56 | inactive |
| CLDN7 | -0.63 | inactive |
| CLDN7 | 0.39 | inactive |
| CLDN7 | 0.8 | inactive |
| NOCT | -0.96 | inactive |
| NOCT | -0.94 | inactive |
| NOCT | -0.88 | inactive |
| NOCT | -0.77 | inactive |
| PRRX2 | 0.16 | inactive |
| PRRX2 | 3.68 | active |
| PRRX2 | 1.25 | inactive |
| PRRX2 | 1.11 | inactive |
| CGNL1 | -0.36 | inactive |
| CGNL1 | -0.01 | inactive |
| CGNL1 | -1 | inactive |
| CGNL1 | -0.57 | inactive |
| SLC67A2 | 2.8 | active |
| SLC67A2 | 1.98 | inactive |
| SLC67A2 | -0.43 | inactive |
| SLC67A2 | 0.45 | inactive |
| TACSTD2 | -1.01 | inactive |
| TACSTD2 | -0.07 | inactive |
| TACSTD2 | -1.29 | inactive |
| TACSTD2 | -1.52 | active |
| TRAPPC11 | -1.32 | inactive |
| TRAPPC11 | -0.92 | inactive |
| TRAPPC11 | -0.91 | inactive |
| TRAPPC11 | -0.83 | inactive |
| PILRB | 0.09 | inactive |
| PILRB | 0.06 | inactive |
| PILRB | 0.51 | inactive |
| PILRB | 0.33 | inactive |
| LONP2 | -0.27 | inactive |
| LONP2 | 0.32 | inactive |
| LONP2 | -0.68 | inactive |
| LONP2 | 1.24 | inactive |
| MTERF1 | 0.11 | inactive |
| MTERF1 | 0.34 | inactive |
| MTERF1 | -0.95 | inactive |
| MTERF1 | -0.61 | inactive |
| EIF4A1 | -0.93 | inactive |
| EIF4A1 | -1.28 | inactive |
| EIF4A1 | -1.29 | inactive |
| EIF4A1 | -0.25 | inactive |
| ZFYVE26 | -1.15 | inactive |
| ZFYVE26 | -0.74 | inactive |
| ZFYVE26 | -1.45 | inactive |
| ZFYVE26 | -0.64 | inactive |
| VWA5B1 | 0.36 | inactive |
| VWA5B1 | 0.8 | inactive |
| VWA5B1 | 0.32 | inactive |
| VWA5B1 | 1.7 | inactive |
| SPATA31A7 | -0.28 | inactive |
| SPATA31A7 | -0.52 | inactive |
| SPATA31A7 | 0.45 | inactive |
| SPATA31A7 | 1.41 | inactive |
| MAD1L1 | 1.95 | inactive |
| MAD1L1 | 6.05 | active |
| MAD1L1 | 1.71 | inactive |
| MAD1L1 | 2.95 | active |
| HS3ST6 | -0.3 | inactive |
| HS3ST6 | -0.66 | inactive |
| HS3ST6 | -0.16 | inactive |
| TMED7 | -0.15 | inactive |
| TMED7 | 0.49 | inactive |
| TMED7 | -0.33 | inactive |
| TMED7 | -0.79 | inactive |
| CORO1A | 2.09 | inactive |
| CORO1A | 2.95 | active |
| CORO1A | 2.3 | inactive |
| CORO1A | 2 | inactive |
| HSPB3 | 0.48 | inactive |
| HSPB3 | -0.19 | inactive |
| HSPB3 | 0.83 | inactive |
| HSPB3 | 0.81 | inactive |
| MIR22HG | 0.2 | inactive |
| MIR22HG | -0.43 | inactive |
| MIR22HG | -0.22 | inactive |
| MIR22HG | -0.35 | inactive |
| SP7 | 2.91 | active |
| SP7 | 2.74 | inactive |
| SP7 | 1.29 | inactive |
| SP7 | 1.8 | inactive |
| RIPPLY2 | 0.85 | inactive |
| RIPPLY2 | 1.12 | inactive |
| RIPPLY2 | 1.52 | inactive |
| RIPPLY2 | 1.75 | inactive |
| PHF13 | 0.72 | inactive |
| PHF13 | 1.95 | inactive |
| PHF13 | 2.67 | inactive |
| PHF13 | 1.23 | inactive |
| MAGEE2 | 1.02 | inactive |
| MAGEE2 | 0.31 | inactive |
| MAGEE2 | 0.63 | inactive |
| CNTROB | -0.41 | inactive |
| CNTROB | 1.03 | inactive |
| CNTROB | 0.51 | inactive |
| CNTROB | 1.57 | inactive |
| WSB1 | -0.21 | inactive |
| WSB1 | 0.24 | inactive |
| WSB1 | -2.17 | active |
| WSB1 | 0.54 | inactive |
| TMC8 | -0.57 | inactive |
| TMC8 | -0.52 | inactive |
| TMC8 | -0.9 | inactive |
| TMC8 | -0.23 | inactive |
| THAP3 | -0.66 | inactive |
| THAP3 | -0.82 | inactive |
| THAP3 | -0.13 | inactive |
| THAP3 | -0.37 | inactive |

8 entries already listed, ordered by “TNF reporter robust z-score”, highest first.
| target | TNF reporter robust z-score | call |
| --- | --- | --- |
| MAD1L1 | 6.05 | active |
| MAD1L1 | 2.95 | active |
| MAD1L1 | 1.95 | inactive |
| MAD1L1 | 1.71 | inactive |
| SPATA31A7 | 1.41 | inactive |
| SPATA31A7 | 0.45 | inactive |
| SPATA31A7 | -0.28 | inactive |
| SPATA31A7 | -0.52 | inactive |
